Measurements published in publication PMC9791402, “Yeast 9-1-1 complex acts as a sliding clamp for DNA synthesis by DNA polymerase ε” (The Journal of Biological Chemistry, 2022).
Results are given in words; binding and its absence hold for the method and conditions named. Some entries that bind do so weakly or less than the wild type. For part of these data: Sequences can lack the tags named with a protein.

Chains of the proteins cited; added tags and fusions are not shown.
UniProt P21951: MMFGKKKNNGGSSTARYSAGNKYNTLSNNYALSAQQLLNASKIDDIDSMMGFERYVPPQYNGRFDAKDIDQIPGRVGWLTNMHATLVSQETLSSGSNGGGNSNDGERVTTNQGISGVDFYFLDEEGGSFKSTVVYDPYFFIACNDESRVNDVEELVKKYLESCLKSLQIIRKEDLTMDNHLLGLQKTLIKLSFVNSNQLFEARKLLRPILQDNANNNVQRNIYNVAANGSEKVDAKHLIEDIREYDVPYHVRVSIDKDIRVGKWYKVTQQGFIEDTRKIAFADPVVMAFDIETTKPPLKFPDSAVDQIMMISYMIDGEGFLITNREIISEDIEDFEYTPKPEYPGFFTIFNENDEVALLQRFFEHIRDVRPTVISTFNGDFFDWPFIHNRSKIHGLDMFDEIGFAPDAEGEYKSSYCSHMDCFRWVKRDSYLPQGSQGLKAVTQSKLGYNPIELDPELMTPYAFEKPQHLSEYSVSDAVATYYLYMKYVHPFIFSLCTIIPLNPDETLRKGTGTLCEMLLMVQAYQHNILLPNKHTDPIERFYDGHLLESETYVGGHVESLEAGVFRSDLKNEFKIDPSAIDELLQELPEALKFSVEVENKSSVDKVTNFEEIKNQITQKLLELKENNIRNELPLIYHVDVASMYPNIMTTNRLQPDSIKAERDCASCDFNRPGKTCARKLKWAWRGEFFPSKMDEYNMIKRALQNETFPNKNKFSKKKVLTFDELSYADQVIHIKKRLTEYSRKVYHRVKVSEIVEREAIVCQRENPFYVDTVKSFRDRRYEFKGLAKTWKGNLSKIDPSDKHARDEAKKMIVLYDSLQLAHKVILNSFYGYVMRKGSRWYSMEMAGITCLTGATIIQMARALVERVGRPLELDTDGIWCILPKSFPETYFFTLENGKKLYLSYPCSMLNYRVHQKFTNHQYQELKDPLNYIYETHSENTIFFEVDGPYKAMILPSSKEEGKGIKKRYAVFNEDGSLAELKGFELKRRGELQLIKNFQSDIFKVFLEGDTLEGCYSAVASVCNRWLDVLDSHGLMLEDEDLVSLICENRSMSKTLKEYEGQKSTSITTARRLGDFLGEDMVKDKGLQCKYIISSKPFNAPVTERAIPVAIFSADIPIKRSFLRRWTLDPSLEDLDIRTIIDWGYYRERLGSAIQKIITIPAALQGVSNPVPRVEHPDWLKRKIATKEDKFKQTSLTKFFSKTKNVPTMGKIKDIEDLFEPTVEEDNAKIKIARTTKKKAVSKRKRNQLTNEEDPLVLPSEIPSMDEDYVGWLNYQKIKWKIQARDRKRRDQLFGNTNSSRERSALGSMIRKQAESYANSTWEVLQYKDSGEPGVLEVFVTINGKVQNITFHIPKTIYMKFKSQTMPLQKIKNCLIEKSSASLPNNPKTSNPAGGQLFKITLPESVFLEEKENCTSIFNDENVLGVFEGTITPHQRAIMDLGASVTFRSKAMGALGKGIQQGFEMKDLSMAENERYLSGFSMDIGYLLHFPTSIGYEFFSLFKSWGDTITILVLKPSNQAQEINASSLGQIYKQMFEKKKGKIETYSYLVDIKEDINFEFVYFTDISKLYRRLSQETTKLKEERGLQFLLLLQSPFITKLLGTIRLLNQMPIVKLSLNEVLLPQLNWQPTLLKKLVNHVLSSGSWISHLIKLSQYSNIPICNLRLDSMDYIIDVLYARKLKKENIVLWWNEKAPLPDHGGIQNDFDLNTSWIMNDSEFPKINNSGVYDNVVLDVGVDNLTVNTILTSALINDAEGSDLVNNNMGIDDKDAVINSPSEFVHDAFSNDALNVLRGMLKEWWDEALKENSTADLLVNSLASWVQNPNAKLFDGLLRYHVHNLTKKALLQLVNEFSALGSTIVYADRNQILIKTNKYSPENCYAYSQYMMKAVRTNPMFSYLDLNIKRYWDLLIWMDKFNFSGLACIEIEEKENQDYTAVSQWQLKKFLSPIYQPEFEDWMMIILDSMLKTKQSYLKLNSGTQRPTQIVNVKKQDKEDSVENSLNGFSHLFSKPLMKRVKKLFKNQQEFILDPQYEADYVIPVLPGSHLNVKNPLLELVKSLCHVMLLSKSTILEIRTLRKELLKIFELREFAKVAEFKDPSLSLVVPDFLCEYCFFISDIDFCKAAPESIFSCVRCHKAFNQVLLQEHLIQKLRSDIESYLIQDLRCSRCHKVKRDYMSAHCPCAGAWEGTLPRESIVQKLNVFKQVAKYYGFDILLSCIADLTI

T1: GST-Mec3 (yeast) (UniProt Q02574)
T1 sequence: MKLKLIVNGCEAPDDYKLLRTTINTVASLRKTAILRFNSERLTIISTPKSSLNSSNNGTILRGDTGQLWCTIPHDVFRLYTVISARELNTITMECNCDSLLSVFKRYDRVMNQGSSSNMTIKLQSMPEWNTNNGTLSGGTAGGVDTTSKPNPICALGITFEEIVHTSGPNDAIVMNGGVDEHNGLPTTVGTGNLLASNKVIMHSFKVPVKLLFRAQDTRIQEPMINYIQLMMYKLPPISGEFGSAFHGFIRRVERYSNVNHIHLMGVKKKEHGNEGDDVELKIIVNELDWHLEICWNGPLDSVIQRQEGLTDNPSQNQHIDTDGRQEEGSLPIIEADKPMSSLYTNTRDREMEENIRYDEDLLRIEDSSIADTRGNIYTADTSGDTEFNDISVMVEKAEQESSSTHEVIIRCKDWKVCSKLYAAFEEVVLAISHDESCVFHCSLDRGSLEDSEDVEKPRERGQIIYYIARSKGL

T2: GST-Rad24 (yeast) (UniProt P32641)
T2 sequence: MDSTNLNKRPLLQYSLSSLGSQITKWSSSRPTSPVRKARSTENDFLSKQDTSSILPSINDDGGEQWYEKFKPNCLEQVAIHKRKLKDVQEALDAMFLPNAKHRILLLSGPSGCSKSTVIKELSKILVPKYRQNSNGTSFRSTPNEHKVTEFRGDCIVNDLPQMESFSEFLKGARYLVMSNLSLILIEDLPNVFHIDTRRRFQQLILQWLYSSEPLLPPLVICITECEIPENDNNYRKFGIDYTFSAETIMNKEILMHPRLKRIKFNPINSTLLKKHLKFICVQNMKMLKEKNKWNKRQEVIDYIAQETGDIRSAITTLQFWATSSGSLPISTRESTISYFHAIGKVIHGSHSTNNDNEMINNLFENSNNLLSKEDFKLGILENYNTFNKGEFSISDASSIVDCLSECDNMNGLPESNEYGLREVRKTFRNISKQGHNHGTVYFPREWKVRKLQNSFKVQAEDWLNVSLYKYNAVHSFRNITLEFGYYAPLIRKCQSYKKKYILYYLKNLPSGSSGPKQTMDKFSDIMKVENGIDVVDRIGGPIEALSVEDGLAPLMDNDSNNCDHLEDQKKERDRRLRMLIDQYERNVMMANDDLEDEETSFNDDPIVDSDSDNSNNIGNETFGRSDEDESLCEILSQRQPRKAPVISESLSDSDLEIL


Assays:
Assay in all cases: co-purification (glutathione-sepharose affinity, then gel filtration); subunits co-expressed in yeast; complex captured from the cell extract by the GST-tagged subunit on glutathione-sepharose, released with PreScission protease, then gel filtration on Superdex PC200 3.2/30 (1x GBB150)
[1] = target: T1, GST-Mec3 (yeast)
[2] = target: GST-tagged Pol2, full length (bait of the Polε holoenzyme purification) (Saccharomyces cerevisiae) (UniProt P21951)
[3] = target: T2, GST-Rad24 (yeast)

Binder | binding [1] | binding [2] | further results
Dpb2 (protein, UniProt P24482 1-689) MFGSGNVLPVKIQPPLLRPLAYRVLSRKYGLSIKSDGLSALAEFVGTNIGANWRQGPATIKFLEQFAAVWKQQERGLFIDQSGVKEVIQEMKEREKVEWSHEHPIQHEENILGRTDDDENNSDDEMPIAADSSLQNVSLSSPMRQPTERDEYKQPFKPESSKALDWRDYFKVINASQQQRFSYNPHKMQFIFVPNKKQNGLGGIAGFLPDIEDKVQMFLTRYYLTNDRVMRNENFQNSDMFNPLSSMVSLQNELSNTNRQQQSSSMSITPIKNLLGRDAQNFLLLGLLNKNFKGNWSLEDPSGSVEIDISQTIPTQGHYYVPGCMVLVEGIYYSVGNKFHVTSMTLPPGERREITLETIGNLDLLGIHGISNNNFIARLDKDLKIRLHLLEKELTDHKFVILGANLFLDDLKIMTALSKILQKLNDDPPTLLIWQGSFTSVPVFASMSSRNISSSTQFKNNFDALATLLSRFDNLTENTTMIFIPGPNDLWGSMVSLGASGTLPQDPIPSAFTKKINKVCKNVVWSSNPTRIAYLSQEIVIFRDDLSGRFKRHRLEFPFNESEDVYTENDNMMSKDTDIVPIDELVKEPDQLPQKVQETRKLVKTILDQGHLSPFLDSLRPISWDLDHTLTLCPIPSTMVLCDTTSAQFDLTYNGCKVINPGSFIHNRRARYMEYVPSSKKTIQEEIYI |  | binds | 
Ddc1 (protein, UniProt Q08949 1-612) MSFKATITESGKQNIWFRAIYVLSTIQDDIKITVTTNELIAWSMNETDTTLCQVRFQKSFFEEYEFKPHEIVFGENGVQVIEDTYGNSHKLYSFRVNGRHLTTISRKPDGDGIKSFTIAVNNTSTCPESLANRLIVVIEMDSLIVKEYCPQFQPIKYDPIIINLKYKRRFLDVFGTAASDRNPQEPLDPKLLDVFTNTERELTSALFNEEVESDIRKRNQLTAADEINYICCNSTLLKNFLDNCNVNVTDEVKLEINVHRLSITAFTKAVYGKNNDLLRNALSMSNTISTLDLEHYCLFTTIEDEKQDKRSHSKRREHMKSIIFKLKDFKNFITIGPSWKTTQDGNDNISLWFCHPGDPILMQMQKPGVKLELVEVTDSNINDDILEGKFIKTAISGSKEEAGLKDNKESCESPLKSKTALKRENLPHSVAGTRNSPLKVSYLTPDNGSTVAKTYRNNTARKLFVEEQSQSTNYEQDKRFRQASSVHMNMNREQSFDIGTTHEVACPRNESNSLKRSIADICNETEDPTQQSTFAKRADTTVTWGKALPAADDEVSCSNIDRKGMLKKEKLKHMQGLLNSQNDTSNHKKQDNKEMEDGLGLTQVEKPRGIFD | binds |  | 
Dpb3 (protein, UniProt P27344 1-201) MSNLVKEKAPVFPISKVKKIAKCDPEYVITSNVAISATAFAAELFVQNLVEESLVLAQLNSKGKTSLRLSLNSIEECVEKRDNFRFLEDAIKQLKKNSALDKKRELNMQPGRSDQEVVIEEPELHEDDGVEEEEEEDEVSEEEEPVHNEELLDDSKDQQNDKSTRSVASLLSRFQYKSALDVGEHSDSSDIEVDHTKSTDP |  | binds | 
four small Rfc2–5 subunits (of Rad24-RFC) (complex, UniProt P40348 1-353; P38629 1-340; P40339 1-323; P38251 1-354) chain 1: MFEGFGPNKKRKISKLAAEQSLAQQPWVEKYRPKNLDEVTAQDHAVTVLKKTLKSANLPHMLFYGPPGTGKTSTILALTKELYGPDLMKSRILELNASDERGISIVREKVKNFARLTVSKPSKHDLENYPCPPYKIIILDEADSMTADAQSALRRTMETYSGVTRFCLICNYVTRIIDPLASRCSKFRFKALDASNAIDRLRFISEQENVKCDDGVLERILDISAGDLRRGITLLQSASKGAQYLGDGKNITSTQVEELAGVVPHDILIEIVEKVKSGDFDEIKKYVNTFMKSGWSAASVVNQLHEYYITNDNFDTNFKNQISWLLFTTDSRLNNGTNEHIQLLNLLVKISQL chain 2: MSTSTEKRSKENLPWVEKYRPETLDEVYGQNEVITTVRKFVDEGKLPHLLFYGPPGTGKTSTIVALAREIYGKNYSNMVLELNASDDRGIDVVRNQIKDFASTRQIFSKGFKLIILDEADAMTNAAQNALRRVIERYTKNTRFCVLANYAHKLTPALLSRCTRFRFQPLPQEAIERRIANVLVHEKLKLSPNAEKALIELSNGDMRRVLNVLQSCKATLDNPDEDEISDDVIYECCGAPRPSDLKAVLKSILEDDWGTAHYTLNKVRSAKGLALIDLIEGIVKILEDYELQNEETRVHLLTKLADIEYSISKGGNDQIQGSAVIGAIKASFENETVKANV chain 3: MSKTLSLQLPWVEKYRPQVLSDIVGNKETIDRLQQIAKDGNMPHMIISGMPGIGKTTSVHCLAHELLGRSYADGVLELNASDDRGIDVVRNQIKHFAQKKLHLPPGKHKIVILDEADSMTAGAQQALRRTMELYSNSTRFAFACNQSNKIIEPLQSRCAILRYSKLSDEDVLKRLLQIIKLEDVKYTNDGLEAIIFTAEGDMRQAINNLQSTVAGHGLVNADNVFKIVDSPHPLIVKKMLLASNLEDSIQILRTDLWKKGYSSIDIVTTSFRVTKNLAQVKESVRLEMIKEIGLTHMRILEGVGTYLQLASMLAKIHKLNNKA chain 4: MSLWVDKYRPKSLNALSHNEELTNFLKSLSDQPRDLPHLLLYGPNGTGKKTRCMALLESIFGPGVYRLKIDVRQFVTASNRKLELNVVSSPYHLEITPSDMGNNDRIVIQELLKEVAQMEQVDFQDSKDGLAHRYKCVIINEANSLTKDAQAALRRTMEKYSKNIRLIMVCDSMSPIIAPIKSRCLLIRCPAPSDSEISTILSDVVTNERIQLETKDILKRIAQASNGNLRVSLLMLESMALNNELALKSSSPIIKPDWIIVIHKLTRKIVKERSVNSLIECRAVLYDLLAHCIPANIILKELTFSLLDVETLNTTNKSSIIEYSSVFDERLSLGNKAIFHLEGFIAKVMCCLD |  |  | binding [3]: binds

Now from value to binder, other results behind:

binding [1] | binding [2] | Binder | further results
binds |  | Rad17 (protein, UniProt P48581 1-401) MRINSELANKFSASTVHLEHITTALSCLTPFGSKDDVLIFIDADGLSFVRENNHVIKIQLLLSRELFMSYSYRNETEDHMKLCVKINHILDSVSVMNRNSDDIVECTLSYDGHGSPFVLIFEDSFISERVEYSTYLIKDFDTNGLELDRERISFEAIIKGEALHSALKDLKEIGCKECYVYAKTEANDENVFALISKSQLGFSKIKLPSNRSILEKLQVFDGDSTTVIDGFAVIGFFDFTSFDKIRKSTKIASKVLFRMDVHGVLSVNILSQTDDVIITDTTRPSNNRPGSIRQLQLPKDYPGIVIEVCMLEKESIDEAAQTEIELLMETNELGNRNSFKKSTIRKRYGTDKGNETSNDNLLQLNGKKIKLPSEEENNKNRESEDEENHCKYPTKDIPIFF | 
 | binds | Dpb4 (protein, UniProt Q04603 1-196) MPPKGWRKDAQGNYPTTSYIKEQENITIQDLLFPKSTIVNLAREVPQQSGKKLLINKDASLALQRGATVFVNHLLLFAREIAKSQDKKSCSVDDVLSALDHIGHSALKGPVRDKLDEYQAAVEQRKKEKLDSGEVDADGDIDMGEDKENVPVEKVKEHDEIEEQGDALQDVEESSEKKQKTESQDVETRVQNLEQT | 
